Data reported in article PMC3427169, “Interaction of Mycobacterium tuberculosis RshA and SigH Is Mediated by Salt Bridges” (PLoS ONE, 2012).
No constants are given. Whether binding was seen depends on the method and setting. In cells and extracts the contact can be indirect. Some results given as binding are weak or reduced against the parent protein; the word gives no strength. Where a sequence is shown, tags or fusion partners need not be part of it.

By UniProt entry, the sequences of proteins in these tests, tags left out.
UniProt P9WGH9: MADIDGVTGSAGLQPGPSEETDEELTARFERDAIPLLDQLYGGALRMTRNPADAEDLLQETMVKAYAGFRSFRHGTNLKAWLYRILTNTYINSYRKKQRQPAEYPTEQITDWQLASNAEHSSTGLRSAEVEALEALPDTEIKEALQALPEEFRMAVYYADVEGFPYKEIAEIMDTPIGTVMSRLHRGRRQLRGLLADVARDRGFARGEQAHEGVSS

T1: GST-tagged RshA, wild type (pGEX4T-1) (Mycobacterium tuberculosis H37Rv) (UniProt P9WJ69)
T1 sequence: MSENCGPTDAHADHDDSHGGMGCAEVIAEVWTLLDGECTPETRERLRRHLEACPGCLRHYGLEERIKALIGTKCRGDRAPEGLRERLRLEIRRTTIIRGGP

B1: Mycobacterium tuberculosis anti-sigma factor RshA, 6xHis-tagged (pET29a) (natural protein)
chain: T1 sequence
notes: also called WT RshA; 6xHis:RshA; not shown: His6, C-terminal, kept

Key:
[1] = target: T1, GST-tagged RshA, wild type (pGEX4T-1) (Mycobacterium tuberculosis H37Rv); test: pull-down; soluble fractions of two E. coli lysates (5.0 mg crude protein each; GST fusion and 6xHis protein) mixed in 50 mM Tris HCl pH 7.5, 100 mM NaCl, 10 mM DTT, 0.01% Triton X-100, 4°C 3 h; glutathione resin 2 h 22°C; washes up to 300 mM NaCl; Coomassie and anti-6xHis blot
[2] = target: GST-tagged SigH, wild type (pGEX4T-1) (Mycobacterium tuberculosis H37Rv) (UniProt P9WGH9); test: as above

| Molecule | binding [1] | binding [2] |
| --- | --- | --- |
| Mycobacterium tuberculosis SigH, 6xHis-tagged (pET29a) (from UniProt P9WGH9 1-216) | binds |  |
| B1 |  | binds |
